{"source": "PubChem BioAssay AID1159578 (Peter MacCallum Cancer Centre, 2015)", "screen": "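Genome-wide hunt for genes controlling movement of lymphatic endothelial cells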 (primary screen)", "cell system": "human lymphatic endothelial cells", "reagent": "siRNA pool against human genes, 40 nM", "timing": "48 h after transfection", "detection": "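High-content imaging of dye-stained cells in a scratch assay measures filled wound area and nuclei per well; duplicate means given as ratio to mock and robust z-score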", "reading the numbers": "migration robust z-score: higher = faster migration into the scratch; nuclei per well: higher = more cells in the well", "hit rule": "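Pools averaging fewer than 3300 nuclei are never called; remaining pools count as changed when migration robust z lies outside -2 to 2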", "meaning of the calls": "active = migration changed; inactive = no migration change, or too few cells", "note": "Here is a random part of about 18,000 deposited reagents. Over the whole deposit, about 1,030 (5.7%) are marked active. 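Inactive calls also include pools with fewer than 3300 nuclei, whose migration was not assessed.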 Raw values are not corrected between plates. Further read-outs or replicates are left out here. No sequences are given here."}
{"gene":"DRICH1","migration robust z-score":-0.67,"migration class with cell-count check":"migration z between -2 and 2; enough cells","nuclei per well, duplicate mean":5956,"activity call":"inactive"}
{"gene":"CLIP4","migration robust z-score":1.34,"migration class with cell-count check":"migration z between -2 and 2; enough cells","nuclei per well, duplicate mean":5714,"activity call":"inactive"}
{"gene":"OR52N2","migration robust z-score":-0.26,"migration class with cell-count check":"migration z between -2 and 2; enough cells","nuclei per well, duplicate mean":3973,"activity call":"inactive"}
{"gene":"C7orf25","migration robust z-score":-0.65,"migration class with cell-count check":"migration z between -2 and 2; enough cells","nuclei per well, duplicate mean":5794,"activity call":"inactive"}
{"gene":"OTOS","migration robust z-score":-2.65,"migration class with cell-count check":"migration z below -2; enough cells","nuclei per well, duplicate mean":6307,"activity call":"active"}
{"gene":"ZNF189","migration robust z-score":0.95,"migration class with cell-count check":"migration z between -2 and 2; enough cells","nuclei per well, duplicate mean":6176,"activity call":"inactive"}
{"gene":"EML1","migration robust z-score":-0.16,"migration class with cell-count check":"migration z between -2 and 2; enough cells","nuclei per well, duplicate mean":5572,"activity call":"inactive"}
{"gene":"ZMYND19","migration robust z-score":0.48,"migration class with cell-count check":"migration z between -2 and 2; enough cells","nuclei per well, duplicate mean":6106,"activity call":"inactive"}
{"gene":"SMYD2","migration robust z-score":-1.06,"migration class with cell-count check":"migration z between -2 and 2; enough cells","nuclei per well, duplicate mean":6669,"activity call":"inactive"}
{"gene":"ANKRA2","migration robust z-score":0.16,"migration class with cell-count check":"migration z between -2 and 2; enough cells","nuclei per well, duplicate mean":5026,"activity call":"inactive"}
{"gene":"KLK8","migration robust z-score":-0.29,"migration class with cell-count check":"migration z between -2 and 2; enough cells","nuclei per well, duplicate mean":5202,"activity call":"inactive"}
{"gene":"PRRG1","migration robust z-score":0.32,"migration class with cell-count check":"migration z between -2 and 2; enough cells","nuclei per well, duplicate mean":5958,"activity call":"inactive"}

A run of entries of the results above:
{"gene":"ANKRA2","migration robust z-score":0.16,"migration class with cell-count check":"migration z between -2 and 2; enough cells","nuclei per well, duplicate mean":5026,"activity call":"inactive"}
{"gene":"KLK8","migration robust z-score":-0.29,"migration class with cell-count check":"migration z between -2 and 2; enough cells","nuclei per well, duplicate mean":5202,"activity call":"inactive"}
